Measurements reported in PubChem BioAssay AID504791 (Drosophila RNAi Screening Center, 2011)
The screen tested about 23,000 reagents; this is a random part of those with a known target gene and a result. Of all reagents, 199 (0.86%) were called active. 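Plate-scaled ratios behind the calls are not deposited; printed light signals are raw; many rows marked increased or decreased are still called inactive.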 The numbers tell different reagents against one gene apart. The record does not give: the direction of the score.

Purpose: 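Genes of the fly required for silencing by miRNA, siRNA or endo-siRNA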 (primary screen)
Cells: Drosophila S2-derived reporter cells
Reagent: long dsRNA against Drosophila genes, about 150-250 ng dsRNA per well (siRNA assay); about 80-120 ng (miRNA assay)
Duration: about 5 days (siRNA assay); about 4 days (miRNA assay)
Treatment: copper sulfate induction of reporters: 25 µM (siRNA assay); 200 mM stated (miRNA assay), 1-2 days before reading
Read-out: 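Dual luciferase assay: Renilla to firefly signal ratio in each well, scaled to the mean ratio of its plate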
Active means: 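a well was a first-pass pick when its plate-scaled ratio rose above 1.5 (siRNA assay) or 1.6 (miRNA assay), or dropped below 0.6; a gene counted only if two separate dsRNAs agreed on retest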

no.	Gene	dsRNA no.	stable siRNA reporter change	miRNA reporter change	stable assay Renilla, run 1 (luminescence)	stable assay firefly, run 1 (luminescence)	Call
1	CG32816	1			7707	3.63e5	inactive
2	Cpr65Au (Cuticular protein 65Au)	1			2919	3.32e5	inactive
3	egh (egghead)	1			9339	4.79e5	inactive
4	CG32023	1			3876	3.63e5	inactive
5	Glg1 (Golgi complex-localized glycoprotein 1)	1			8222	4.06e5	inactive
6	Glg1 (Golgi complex-localized glycoprotein 1)	2			6755	5.24e5	inactive
7	Glg1 (Golgi complex-localized glycoprotein 1)	3			7882	5.38e5	inactive
8	GstE6 (Glutathione S transferase E6)	1			5084	2.47e5	inactive
9	CG8584	1			6607	3.26e5	inactive
10	CG33285	1			6823	4.04e5	inactive
11	TM9SF4 (Transmembrane 9 superfamily protein member 4)	1			7364	1.11e6	inactive
12	TM9SF4 (Transmembrane 9 superfamily protein member 4)	2			7583	3.92e5	inactive
13	asun (asunder)	1		reporter ratio raised past the hit cutoff	22147	5.87e5	active

Records above marked active (1):
Gene	dsRNA no.	stable siRNA reporter change	miRNA reporter change	stable assay Renilla, run 1 (luminescence)	stable assay firefly, run 1 (luminescence)	Call
asun (asunder)	1		reporter ratio raised past the hit cutoff	22147	5.87e5	active

The list goes on:
no.	Gene	dsRNA no.	stable siRNA reporter change	miRNA reporter change	stable assay Renilla, run 1 (luminescence)	stable assay firefly, run 1 (luminescence)	Call
14	CG14795	1			7112	5.62e5	inactive
15	CG6154	1			6635	3.28e5	inactive
16	fend (forked end)	1			4744	4.73e5	inactive
17	fend (forked end)	2			4822	4.31e5	inactive
18	red (red Malpighian tubules)	1	reporter ratio raised past the hit cutoff		7114	2.36e5	inactive
19	red (red Malpighian tubules)	2			2644	2.72e5	inactive
20	bsk (basket)	1			14540	4.53e5	inactive
21	CG5543	1			8859	1.46e6	inactive
22	BBS1 (Bardet-Biedl syndrome 1)	1			4063	3.63e5	inactive
23	babo (baboon)	1			6732	4.01e5	inactive
24	CG33203	1			5948	3.19e5	inactive
25	CG33203	2			5908	3.67e5	inactive
26	CG33203	3			5059	4.56e5	inactive
27	pygo (pygopus)	1			8336	5.19e5	inactive
28	SmD2 (Small ribonucleoprotein particle protein SmD2)	1			11940	4.33e5	inactive
29	orb2	1			8866	4.59e5	inactive
30	orb2	2			5668	3.77e5	inactive
31	orb2	3	reporter ratio raised past the hit cutoff		46627	4.88e5	inactive
32	CG10055	1			6750	3.67e5	inactive
33	CG14566	1			6704	3.45e5	inactive
34	CG11626	1			7352	4.31e5	inactive
